The record followed here is patent publication EP4821935A1, “MACROCYCLIC COMPOUND CONTAINING AMIDE SUBSTITUTION” (dated 2026).

Assay [1] has as its system Capan-1 cells. The assay is described as follows: Assay for inhibitory activity for Capan-1 cell proliferation (CCK-8). The note with it: read-out: Inhibitory activity IC50 for Capan-1 cell proliferation, 5 days incubation, CCK-8, 20000 nM-9.1 nM. The procedure:
Capan-1 cells in a well-growing state were collected into a centrifuge tube, adjusted to a cell density of 1.5 × 10^4 cells/mL, and inoculated onto a 96-well plate (100 µL/well). The compounds were added using a nanoliter pipettor such that the final concentrations of the compounds were 20000 nM-9.1 nM (the addition was performed in duplicate). Meanwhile, a control was set. After 5 days of incubation in the cell incubator, the assay reagent CCK-8 (manufacturer: Dojindo Laboratories, Beijing; 10 µL/well) was added. After 4 h of incubation in the cell incubator, the absorbance values were measured at 450 nm on a PerkinElmer Envision microplate reader. A four-parameter analysis was performed, a dose-response curve was fitted, and IC50 was calculated. A represents that IC50 < 100 nM; B represents that 100 nM ≤ IC50 < 500 nM. Table 1. Results of cell proliferation inhibition assay for compounds

For assay [2], the system named is AsPc-1 cells. The assay is described as follows: Assay for inhibitory activity for AsPc-1 cell proliferation (CCK-8). The note with it: read-out: Inhibitory activity IC50 for AsPc-1 cell proliferation, 72 h incubation, CCK-8, 5000 nM-0.31 nM. The procedure: AsPc-1 cells in a well-growing state were collected into a centrifuge tube, adjusted to a cell density of 3 × 10^4 cells/mL, and inoculated onto a 96-well plate (100 µL/well). The compounds were added using a nanoliter pipettor such that the final concentrations of the compounds were 5000 nM-0.31 nM (the addition was performed in duplicate). Meanwhile, a control was set. After 72 h of incubation in the cell incubator, the assay reagent CCK-8 (manufacturer: Dojindo Laboratories; 10 µL/well) was added. After 3 h of incubation in the cell incubator, the absorbance values were measured at 450 nm on a PerkinElmer Envision microplate reader. A four-parameter analysis was performed, a dose-response curve was fitted, and IC50 was calculated. A represents that IC50 < 100 nM; B represents that 100 nM ≤ IC50 < 500 nM.

The structures appear in SMILES notation. Structures were worked out from names or drawings and are uncertain. Bounds are passed on as bounds.

For the compound `CCn1c(-c2cc(N3CCN(C)CC3)cnc2[C@H](C)OC)c2c3cc(ccc31)-c1csc(n1)C[C@H](NC(=O)C1CC=C(C)CC1)C(=O)N1CCC[C@H](N1)C(=O)OCC(C)(C)C2` (some centres unmarked), the IC50 in assay [1] and in assay [2] was under 100 nM in each case.
